Here are results for 68 sequences from PubChem BioAssay AID1347426 (Functional Genomics Laboratory (NCATS/FGL), 2020).

About 1,400 (4.5%) of roughly 31,000 sequences were called active.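 The calls were made as follows: active = median seed-adjusted z-score above 1 or below -1; inactive = the rest.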 Some of the results follow.

This test can be described thus: Novel Modifiers of Survival Motor Neuron (SMN) Protein: Gene Identification via Genome-wide siRNA Screen. The note with it: HEK293T SMN2-luciferase reporter, siRNA knockdown, 72 h; actives lie on both sides. The source says: Spinal muscular atrophy (SMA) is the most common neuromuscular autosomal recessive disorder and one of the leading genetic causes of infant death. SMA results from mutations inducing loss of function or deletion in the survival of motor neuron-1 gene (SMN1), leading to deficiency of the survival motor neuron (SMN) protein. Although a second nearly identical gene, SMN2, is retained in humans, its expression primarily produces an aberrantly spliced isoform that is largely unstable and quickly degraded. We performed a genome-wide RNAi screen using a cell-based reporter assay to identify genes and pathways that modulate SMN protein stability. The screen identified over 200 genes that led to the greatest increase or decrease in luciferase expression.
Using HEK293T cells stably expressing a luciferase reporter that combines the promoter and splicing based cassettes in tandem with the major portion of the native SMN2 cDNA with luciferase, we performed a genome-wide RNAi screen to identify modulators of SMN protein levels. Luciferase is expressed when full-length SMN protein is generated with luminescence signal proportional to SMN protein levels. Our luciferase-based reporter assay was used to screen Ambion Silencer Select Human Druggable Genome siRNA library (10418 genes, 3 unique siRNAs per gene) using lipid-based reverse transfection.
Briefly, 1 pmol of each siRNA was spotted to a well of a 384-well plate (Corning, Corning, NY) and 20 microL of serum-free DMEM containing […] of Lipofectamine RNAiMax (Life Technologies, Carlsbad, CA) was then added to each well. Transfected cells were maintained at 37 degrees C in 5% CO2 for 72 hours, 20 microL of ONE-Glo Reagent (Promega) was added to wells for luciferase quantification. Raw luminescence reads were normalized to Ambion(R) Silencer(R) Negative Control #2 siRNA, then log10 transformed. A robust statistical measure of median absolute deviation (MAD) to standardize siRNA activities from each screen. Common Seed Analysis was used to help prioritize clean hits as opposed to those appearing to arise from seed based off-target effects. Candidate modulators were defined as the genes having a MAD score greater than 1.0 or less than -1.0.
As for AGGUGGUGCAUGCAUUUGATT against RAD51L3, the median seed-adjusted z-score was inactive: 0.155.

On to CAACACCAGCUAAUCCAUATT against ZNF345, for which the median seed-adjusted z-score was inactive: -0.275.

Consider GGUAUUCGUGGACACCGUATT against RNASEH2A, for which the median seed-adjusted z-score was inactive: -0.158.

Regarding GCCUUUCUCUCGUACAACATT against TMTC1, the median seed-adjusted z-score was inactive: -0.147.

For the sequence GUGUAAGAACUACUACAGATT against HPR, the median seed-adjusted z-score is inactive: 0.237.

For GCUGAACAGUAUUACAGAUTT against TSN, the median seed-adjusted z-score was inactive: 0.572.

As for GGGUAGAAUCAGUCAAGUUTT against ZNF614, the median seed-adjusted z-score is inactive: 0.0971.

Take GAAAAUCGAAAGACUAAAATT against UTP11L: the median seed-adjusted z-score was inactive: -0.755.

Regarding CCAAAAGAAUAUCCGCUAATT against NLK, the median seed-adjusted z-score was inactive: 0.256.

On to CAUCUAAACUAAGUCCCAATT against RGS4, for which the median seed-adjusted z-score is inactive: 0.

For the sequence CCAUCUUCGAGAACCUCUGTT against CLDN15, the median seed-adjusted z-score was inactive: 0.973.

For CAGUCUUGAUUUAACCUUATT against HAGH, the median seed-adjusted z-score is inactive: 0.647.

In the case of GGAAAACUCGUGUCCAUCATT against FARP1, the median seed-adjusted z-score is inactive: -0.487.

Consider CCAGUACCUUUGCAGGUUATT against tAKR, for which the median seed-adjusted z-score is inactive: -0.356.

As to GCAUCAGCUCACAACAAAATT against SF3B4, the median seed-adjusted z-score was active: -2.56.

In the case of GGAUUUUGGAGAUUACCAATT against TLN1, the median seed-adjusted z-score is inactive: -0.0619.

For GGACCAAAGCAGUAUCCUUTT against NDUFB8, the median seed-adjusted z-score is inactive: -0.468.

Turning to GCACUUUACCAUUAGACAATT against LDB2, the median seed-adjusted z-score was inactive: -0.0847.

On to GCUAUGUAAUUAACGGCAATT against ACAD11, for which the median seed-adjusted z-score is inactive: -0.679.

With GCAGGGCAGUAAUCCUCAUTT against DLX6, the median seed-adjusted z-score is inactive: 0.0275.

For GGCAAAUGGUUGAGACUGATT against YWHAE, the median seed-adjusted z-score is active: 1.38.

For the sequence GAAUCAUCAAAACGGAAUATT against SEMA3D, the median seed-adjusted z-score was inactive: -0.0201.

Take GGACCUAGACCAAAGAACATT against ING4: the median seed-adjusted z-score was inactive: -0.152.

In the case of GCAUGUUGUUGAUCAUGGATT against MAFB, the median seed-adjusted z-score is inactive: 0.674.

CAAUGGAUUUGCAAUCUUUTT against SLCO4C1: the median seed-adjusted z-score was inactive: -0.116.

Take GAACUAUACCGAAAAUGAATT against GLUD2: the median seed-adjusted z-score was inactive: -0.0225.

As to GCGUGAUUCUGCUCUAUAATT against ABCC9, the median seed-adjusted z-score is inactive: 0.376.

Take CCAUUGGCCUGGAGGACUUTT against KCNK7: the median seed-adjusted z-score was inactive: 0.0523.

For the sequence UGACCGAGAAGGUAGACAATT against BCL2L11, the median seed-adjusted z-score was inactive: -0.0521.

Regarding CUACCAUUUUCAUCGAGGATT against FREM3, the median seed-adjusted z-score was inactive: -0.565.

With GAAUAUGAAACAUUCGAUATT against GLRX3, the median seed-adjusted z-score was inactive: 0.0784.

As to GCCUCUCACAUCUAUGGUATT against ITIH4, the median seed-adjusted z-score was inactive: 0.64.

With CCCUGAAAAUUUUCCGCAATT against PDIA4, the median seed-adjusted z-score is inactive: -0.499.

Consider GUAUCGAUGCAGUUUAUGATT against MMP16, for which the median seed-adjusted z-score was inactive: 0.144.

For the sequence GGUUCCGCAUCAUCCAUGATT against ANKK1, the median seed-adjusted z-score was inactive: -0.288.

In the case of AGAUACAAGUUUCCGAACATT against MUPCDH, the median seed-adjusted z-score is inactive: -0.329.

With ACUUAGCACUUUAUAUUUATT against DUSP2, the median seed-adjusted z-score was inactive: 0.576.

Consider CCUGAAGUACUGUACCGCATT against HECTD3, for which the median seed-adjusted z-score was inactive: 0.

Regarding CGAAUCCUCUACUACAUCUTT against LENG8, the median seed-adjusted z-score is inactive: -0.00539.

As to GAGCUGCAAUGAUCAUCGATT against LIMCH1, the median seed-adjusted z-score was inactive: 0.125.

Regarding CAUCACAACUCUUGUCUUATT against AJAP1, the median seed-adjusted z-score is inactive: 0.488.

Consider CAGACAGUUUAGUUCAGAATT against ZNF654, for which the median seed-adjusted z-score is inactive: 0.199.

As to GGAGAUGUAGUUUCAAGAATT against SAV1, the median seed-adjusted z-score is inactive: 0.766.

Turning to CCCAGAUCAUAUACUCCUATT against LYPLAL1, the median seed-adjusted z-score was inactive: -0.425.

As to CGGAAAUCCUGAAACCUCATT against ZNF79, the median seed-adjusted z-score is inactive: -0.351.

With GGAUGACACCAGCCUCUAUTT against DUSP27, the median seed-adjusted z-score is inactive: -0.162.

With GGGCAUACCUGACUAUCCATT against ITIH4, the median seed-adjusted z-score is inactive: 0.64.

For GAACGGACAUUGUUUAUGATT against PDGFRL, the median seed-adjusted z-score is inactive: 0.0203.

In the case of CGUUUCAGUCGUUUCAAAATT against POLR2D, the median seed-adjusted z-score is active: -3.79.

For the sequence CGUCAUUUUUGGUACAAGUTT against DAB2, the median seed-adjusted z-score was inactive: 0.678.

Regarding GAAUGUUGCAAGUCUAGGATT against UQCR, the median seed-adjusted z-score was inactive: 0.193.

As to GCAUUGACUACGUGCUUUATT against SMPD2, the median seed-adjusted z-score is inactive: -0.406.

On to GCAUAGAUGUCUUUGAGGATT against HGD, for which the median seed-adjusted z-score was inactive: -0.0401.

Take AGCCCUACAUGACCCAGGATT against KCNJ4: the median seed-adjusted z-score is inactive: -0.492.

Take CAUUCUUAAUUACAGUGGATT against TXNDC9: the median seed-adjusted z-score is inactive: -0.176.

On to AGAUGAAGCAAUAGAUUAUTT against CETN3, for which the median seed-adjusted z-score was inactive: -0.0815.

Regarding CCUAGAUACUUGCCGCAAATT against YARS2, the median seed-adjusted z-score is inactive: 0.0901.

Consider CACUAUCGAUGUGAUCAUUTT against SGMS2, for which the median seed-adjusted z-score was inactive: -0.492.

CAACUGGUUCCCUAAGAAATT against TAGLN2: the median seed-adjusted z-score was inactive: 0.432.

GCACAGGUCCUAUAGGAGATT against MGAM: the median seed-adjusted z-score was inactive: 0.312.

Consider GCAAUUCCAUGAUAAGGAATT against MMP20, for which the median seed-adjusted z-score is inactive: 0.0623.

For the sequence AAGCCUUGGUCUAAAGGUATT against CD1B, the median seed-adjusted z-score is inactive: -0.407.

On to GGAUCCAUGCAGAACAUUUTT against USP51, for which the median seed-adjusted z-score is inactive: -1.

CUUCCUAGGUUACAAGUAATT against FAM84B: the median seed-adjusted z-score was inactive: -0.431.

Consider GACCCAAAGUUUGCAACAATT against DUSP11, for which the median seed-adjusted z-score is inactive: -0.0184.

In the case of GGAUAACUGGGAUGACGAUTT against EIF3J, the median seed-adjusted z-score is inactive: -0.411.

Turning to ACAAUUCGCAGAGAGCUUATT against MOAP1, the median seed-adjusted z-score was inactive: 0.0405.

For the sequence GCUACAACGGAAACAAUCATT against MSTN, the median seed-adjusted z-score is inactive: -0.639.
